Values from PubChem BioAssay AID1259254 (NCATS, 2017).

Screen: 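Gene knock-downs that lead to re-replication, shown by excess G2 DNA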 (primary screen)
Cell system: human HCT116 colorectal cancer cells
Knock-down reagent: single siRNA against human genes
Duration: 3 days
Measured: 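Imaged Hoechst DNA stain sorts each cell into a cycle phase by DNA amount; per plate, G2 fraction set to 0% for non-targeting and 100% for GMNN siRNA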
Scale: G2 robust z-score: higher = more G2 cells, more excess DNA replication
Call rule: 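Active siRNAs have a G2 robust z of 5 or more median absolute deviations over the median, which in these data means about 38% or higher of GMNN control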
The deposit covers about 59,000 reagents; shown is an unselected part. Over the whole deposit, about 1,550 (2.6%) were called active. 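G2 share is only a proxy for re-replication; each gene was hit by three separate siRNAs, and active genes were retested.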 Not all columns of the deposit are shown. No sequences are given here. Not given: the amount of reagent.

no.	target gene	PubChem SID	G2 robust z-score	outcome
1	MTRR (GeneID 4552)	SID160777555	3.94	inactive
2	MTRR (GeneID 4552)	SID160777557	-0.868	inactive
3	MTRR (GeneID 4552)	SID160777558	1.39	inactive
4	PPM1D (GeneID 8493)	SID160720153	0.387	inactive
5	PPM1D (GeneID 8493)	SID160720154	-0.712	inactive
6	PPM1D (GeneID 8493)	SID160720155	-0.346	inactive
7	ALKBH1 (GeneID 8846)	SID160720960	-1.02	inactive
8	ALKBH1 (GeneID 8846)	SID160720961	-1.05	inactive
9	ALKBH1 (GeneID 8846)	SID160720963	-1.31	inactive
10	RHBDD3 (GeneID 25807)	SID160732836	-0.0903	inactive
11	RHBDD3 (GeneID 25807)	SID160737020	2.52	inactive
12	RHBDD3 (GeneID 25807)	SID160737021	-0.393	inactive
13	ENO1 (GeneID 2023)	SID160760400	-0.534	inactive
14	ENO1 (GeneID 2023)	SID160760410	0.773	inactive
15	ENO1 (GeneID 2023)	SID160760418	1.83	inactive
16	MT1CP (GeneID 441771)	SID160725448	0.731	inactive
17	MT1CP (GeneID 441771)	SID160725449	1.37	inactive
18	MT1CP (GeneID 441771)	SID160725450	-0.765	inactive
19	GOLGA5 (GeneID 9950)	SID160723527	-0.897	inactive
20	GOLGA5 (GeneID 9950)	SID160723528	0.807	inactive
21	GOLGA5 (GeneID 9950)	SID160723529	-0.496	inactive
22	ADCK2 (GeneID 90956)	SID160753853	-1.02	inactive
23	ADCK2 (GeneID 90956)	SID160753854	0.32	inactive
24	ADCK2 (GeneID 90956)	SID160753855	1.29	inactive
25	PXMP2 (GeneID 5827)	SID160715480	-0.576	inactive
26	PXMP2 (GeneID 5827)	SID160715481	1.93	inactive
27	PXMP2 (GeneID 5827)	SID160715482	2.39	inactive
28	SPANXN5 (GeneID 494197)	SID160733468	-0.422	inactive
29	SPANXN5 (GeneID 494197)	SID160768275	-0.874	inactive
30	SPANXN5 (GeneID 494197)	SID160768277	0.711	inactive
31	SOX9 (GeneID 6662)	SID160717209	0.224	inactive
32	SOX9 (GeneID 6662)	SID160717210	1.78	inactive
33	SOX9 (GeneID 6662)	SID160717211	-0.366	inactive
34	SOX6 (GeneID 55553)	SID160731514	-0.0307	inactive
35	SOX6 (GeneID 55553)	SID160731515	-0.232	inactive
36	SOX6 (GeneID 55553)	SID160743787	1.9	inactive
37	TAAR8 (GeneID 83551)	SID160751206	3.27	inactive
38	TAAR8 (GeneID 83551)	SID160751207	0.138	inactive
39	TAAR8 (GeneID 83551)	SID160751208	0.0105	inactive
40	CD302 (GeneID 9936)	SID160723486	-0.896	inactive
41	CD302 (GeneID 9936)	SID160723487	-0.687	inactive
42	CD302 (GeneID 9936)	SID160732226	-0.106	inactive

Reformatted: entries from further up
PPM1D (GeneID 8493) [SID160720153]
- G2 robust z-score: 0.387
- outcome: inactive

PPM1D (GeneID 8493) [SID160720154]
- G2 robust z-score: -0.712
- outcome: inactive

PPM1D (GeneID 8493) [SID160720155]
- G2 robust z-score: -0.346
- outcome: inactive

ALKBH1 (GeneID 8846) [SID160720960]
- G2 robust z-score: -1.02
- outcome: inactive

ALKBH1 (GeneID 8846) [SID160720961]
- G2 robust z-score: -1.05
- outcome: inactive

ALKBH1 (GeneID 8846) [SID160720963]
- G2 robust z-score: -1.31
- outcome: inactive

RHBDD3 (GeneID 25807) [SID160732836]
- G2 robust z-score: -0.0903
- outcome: inactive

RHBDD3 (GeneID 25807) [SID160737020]
- G2 robust z-score: 2.52
- outcome: inactive

The results go on.
no.	target gene	PubChem SID	G2 robust z-score	outcome
43	DDX19A (GeneID 55308)	SID160743496	-0.00433	inactive
44	DDX19A (GeneID 55308)	SID160743497	0.0887	inactive
45	DDX19A (GeneID 55308)	SID160743498	1.05	inactive
46	TNFSF18 (GeneID 8995)	SID160721251	-0.88	inactive
47	TNFSF18 (GeneID 8995)	SID160721252	3.54	inactive
48	TNFSF18 (GeneID 8995)	SID160721253	-0.532	inactive
49	ACER2 (GeneID 340485)	SID160764429	0.399	inactive
50	ACER2 (GeneID 340485)	SID160764430	-0.314	inactive
51	ACER2 (GeneID 340485)	SID160764431	5.12	active
52	SIGMAR1 (GeneID 10280)	SID160728062	1.7	inactive
53	SIGMAR1 (GeneID 10280)	SID160728063	1.55	inactive
54	SIGMAR1 (GeneID 10280)	SID160728064	3.28	inactive
55	PPP6R3 (GeneID 55291)	SID160743458	0.341	inactive
56	PPP6R3 (GeneID 55291)	SID160743459	-0.533	inactive
57	PPP6R3 (GeneID 55291)	SID160743460	1.85	inactive
58	IGF2 (GeneID 3481)	SID160775620	-1.22	inactive
59	IGF2 (GeneID 3481)	SID160775621	0.437	inactive
60	IGF2 (GeneID 3481)	SID160775622	-0.188	inactive
61	VANGL2 (GeneID 57216)	SID160745837	-0.651	inactive
62	VANGL2 (GeneID 57216)	SID160745838	6.6	active
63	VANGL2 (GeneID 57216)	SID160745839	-0.0433	inactive
64	CACNB4 (GeneID 785)	SID160735521	-0.875	inactive
65	CACNB4 (GeneID 785)	SID160735532	-0.619	inactive
66	CACNB4 (GeneID 785)	SID160735543	-1.17	inactive
67	RGPD2 (GeneID 729857)	SID160773235	-0.275	inactive
68	RGPD2 (GeneID 729857)	SID160773236	0.0673	inactive
69	RGPD2 (GeneID 729857)	SID160773237	5.1	active
70	TRAP1 (GeneID 10131)	SID160721825	0.169	inactive
71	TRAP1 (GeneID 10131)	SID160721924	1.71	inactive
72	TRAP1 (GeneID 10131)	SID160722028	-0.0244	inactive
73	ZBTB21 (GeneID 49854)	SID160739577	-0.423	inactive
74	ZBTB21 (GeneID 49854)	SID160739578	-0.0493	inactive
75	ZBTB21 (GeneID 49854)	SID160739579	0.206	inactive
76	LRRC15 (GeneID 131578)	SID160757078	5.7	active
77	LRRC15 (GeneID 131578)	SID160757080	4.36	inactive
78	LRRC15 (GeneID 131578)	SID160757081	0.575	inactive
79	PCDH15 (GeneID 65217)	SID160748287	-0.502	inactive
80	PCDH15 (GeneID 65217)	SID160748288	0.629	inactive
81	PCDH15 (GeneID 65217)	SID160748289	1.35	inactive
82	ADAMTSL1 (GeneID 92949)	SID160754403	0.123	inactive
83	ADAMTSL1 (GeneID 92949)	SID160754404	0.792	inactive
84	ADAMTSL1 (GeneID 92949)	SID160754405	-0.587	inactive
85	ADAMTSL1 (GeneID 92949)	SID160761212	-0.516	inactive
86	ADAMTSL1 (GeneID 92949)	SID160761213	2.24	inactive
87	ADAMTSL1 (GeneID 92949)	SID160761214	-0.173	inactive
